Laboratory results reported in patent US12650433B2, “Detection of symmetrical dimethylarginine” (IDEXX LABORATORIES, INC., priority 2017, dated 2026).

Test: Catalyst DX SDMA assay on matched feline serum and plasma samples, serum/plasma bias
Details: range over samples
Experimental: The Catalyst DX® assays were performed according the following general procedure and according the instruction of the manufacturer (IDEXX Laboratories, Inc.) The sample and the anti-SDMA-HRP conjugate were incubated for two minutes at room temperature. Two 11 μL aliquots of the mixture were applied to the CATALYST DXR solid phase prepared as described in Example 12. The solid phase was washed three times with 9 μL of wash buffer. Two 11.5 μL aliquots of TMB substrate were added. The OD of the slide was then read for two minutes at 0.5 second intervals at 645 nM.
The Catalyst DX® SDMA assay was carried out on matched serum and plasma samples, with either covalently linked amine-MMA particles or passively coated G6PDH-MMA particles. The experiments were performed in duplicate. Sample bias was calculated as follows: (serum SDMA (μg/dL)-plasma SDMA (μg/dL)/((serum SDMA (μg/dL)+plasma SDMA (μg/dL))/2), which reflects the difference between the serum and plasma values) divided by the mean of the serum and plasma values.

CCNC(=O)CSCCNC(=O)C(N)CCCNC(=N)NC (stereo not shown) [G6PDH-MMA]
serum/plasma bias: −3% to 6%
